Source: the RNAGym collection of RNA variant scans (doi:10.1126/science.aae0568)
Variants at the floor of the assay are shown more often than the library holds them.

B1: tRNA (parent)
chain: GUUCCGUUGGCGUAAUGGUAACGCGUCUCCCUCCUAAGGAGAAGACUGCGGGUUCGAGUCCCGUACGGAACG

Variants of: B1
Experiment: yeast fitness relative to wild type (ratio to wild type); higher = fitter; tRNA-Arg(CCU), competitive growth, 37 C, YPD
Outline: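 A pool of Saccharomyces cerevisiae strains, each with a tRNA-Arg(CCU) gene variant at the native genomic locus, was competed in YPD at 37°C for 24 hours across six parallel replicates. The variants had been chemically synthesised at a 3% per-site mutation rate over 69 sites, and gene amplicons before and after competition were read by 100-nucleotide paired-end sequencing. Darwinian fitness relative to wild type rested on changes in genotype frequencies. Genotypes required ≥ 100 starting reads, and estimates < 0.5 were set to 0.5.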

GUUCCGUUGGCGUAAUGGAAACCCGUCUCGCUCCUAAGGAGAAGACAGCGGGUUCGAGUCCCGUGCGGAACG [U19A G23C C30G U47A A65G] and GUUCCGUUGGCGUAAUGGUAACGCGUCUUCGUCGUACGGAGAAGACUGCGGGUUUGAGUCCCGUACGGAACG [C29U C31G C34G A37C C55U] cannot be ordered by yeast fitness: no more than 0.5 for the first, no more than 0.5 for the second.

Going from GUUCGGUUGGCGUAAUGGUAACGCGUCUCCUUCCUCAAGAGAAGACUGCGGGUUCGAGUCCCGUACGGAACG [C5G C31U A36C G38A] to GUUCCGUUGGCGUAAUGGUAACACGUCUCCCUCCUAAGGGGAAGCCUGCGGGUUCGAGUCCCGUACGGAACG [G23A A40G A45C], the yeast fitness falls from 0.557 to no more than 0.5.

Going from GUUCCGUCGGCGUAAUGGUAACGCGUCUCCCUCCUAAGGAGAAGACUGCAGGUUCGAGUCCCGUACGGAACG [U8C G50A] to GUUCCGUUGGCGUAAUGGCAACGCGUCUCCCUCCUAACGAGAAGACUGCGGGUUUGAGUCCCGUACGGAACG [U19C G38C C55U], the yeast fitness falls from 0.773 to no more than 0.5.

Going from GCUCCGCUGGCGUAAUGGCAACGCGUCUCCCUCUUAAGGAGAAGACUGCGGAUUCGAGACCCGUACGGAACG [U2C U7C U19C C34U G52A U59A] to GUUCCGUUGGCGUAAUGGUAACGCGUAUCCUUCCUAAGGAGAUGACUGCGGGUUCGAGUCCCGUACGGAACG [C27A C31U A43U], the yeast fitness rises from no more than 0.5 to 0.961.

GUUCCGUUGGCGUAAUGGUAACGCGUUUCGCUCCUAAGGAGAAGACUGCGGGUUUGCGUCCCGUACGGAACG [C27U C30G C55U A57C] and GUUCCGUUGGAGUAAUGGUAACGCGUCUCCCUCCUAAGAAGAAGACUGCGGCUUGGAGUCCCGUACGGAACG [C11A G39A G52C C55G] cannot be ordered by yeast fitness: no more than 0.5 for the first, no more than 0.5 for the second.

GUUCCGUUGGCGUAAUGCUAACGCGUCUCCCUCCUAAGGAGACGACUGCGGGUUUGAAUCUCGUACGGAACG [G18C A43C C55U G58A C61U] and GUUCCGUUGGCGUACUGGUAACGCGUUUCCCUCUUAAGGAGAAGACUGCGGAUUCGAGUCACGUACGGAUCG [A15C C27U C34U G52A C61A A70U] cannot be ordered by yeast fitness: no more than 0.5 for the first, no more than 0.5 for the second.

Going from GUUCCGAUGGUGUAAUCGUAACGCGUCUCGCUCCUACGGAGAAGACUCCGGGUUCGAGUCCCGUACGGAACG [U7A C11U G17C C30G A37C G48C] to GUUCAGUUGGCGUAAUGGAAACGCGUCUCCCUCCUAAGGAGAAGACUGCGGGUUCGAGUCCCGUCCGGAACG [C5A U19A A65C], the yeast fitness rises from no more than 0.5 to 0.538.

GCUCCGUCGGGGUAAUGGUAACGCGUCUCCCUCCUAAGGAGAAGAAUGCGGGUUCGAGUCCCGUACGGACCG [U2C U8C C11G C46A A70C] and GUUCCGUUGGAGUAAUGGUAACGCGUCUGCCUCCUAAGGAGAAGACUGCGGGUUAGAGUCCCGUACGGAACG [C11A C29G C55A] cannot be ordered by yeast fitness: no more than 0.5 for the first, no more than 0.5 for the second.

GUGGCCUUGGCGUAAUGGUAACGCGUCUACCUCCUCAGGAGAAGACUGCGGGUUCGAGUCCCGUACGGAACG [U3G C4G G6C C29A A36C] and GUUCCGUUGGCGUAAUGGUAAUGCGUCUCCCUCUUAAGGAGAACACUGCGGGUUCGAGUCCCGUACGGAACG [C22U C34U G44C] cannot be ordered by yeast fitness: no more than 0.5 for the first, no more than 0.5 for the second.

GUUCCCUUGGCGUAAUGGUAACGCCUCUCCCUCCUAUGCAGAAGACUGCGGGUUCGAGUCCCGUACGGAACG [G6C G25C A37U G39C] and GUUCCGUUGGCGUAAUGGUAACGCGUCUACCUCCUAAGGAGAAGACUGCGGGUUCGAGUCACGUACGGAACG [C29A C61A] cannot be ordered by yeast fitness: no more than 0.5 for the first, no more than 0.5 for the second.

Compared with GUUCCGUUGGCGUACUGGAAACGGGUCUCCCUCGUAAGGAGAAGAUUGCGGGUUCGAGUCACGUACGGAACG [A15C U19A C24G C34G C46U C61A], GUUCCGUUGGCGUAAUGGUAACGCGUCUACCUCCUAAGGAGAACACUGCGGGUUCGAGUCCCGUACGGAACG [C29A G44C] is higher in yeast fitness: no more than 0.5 for the first, 0.778 for the second.

GUUUCGUUGGCGUAAUGGUAACGCGUCUCCCUGCUAAGGAGAAGACGGCGGGUUCGGGUCCCGUACGGUACG [C4U C33G U47G A57G A69U] and GUUCCGUUGGCGUAACGGUAACGCGUCUCCCUCGUAAGGAGAAGACUGCGGGUUCGAGUCCCGUUCUGAACG [U16C C34G A65U G67U] cannot be ordered by yeast fitness: no more than 0.5 for the first, no more than 0.5 for the second.

GUUCCGUUGGCGUAAUGGUAACGCGUCUCCUUCAUAUCGAGAAGACUGCGGGUUCGAGUUACGUACGGCACG [C31U C34A A37U G38C C60U C61A A69C] and GUUCCGUUGGCGUUAUGGUAACGCGUCUGCCUCCUAAGGAAAAGACUGCGGGUUCGAGUCCCGUACGGAACG [A14U C29G G41A] cannot be ordered by yeast fitness: no more than 0.5 for the first, no more than 0.5 for the second.

Compared with GUUCCGUUGGUGUAAUGGUAACGCGUCUCCCUCUUAAAGAGAACACUGCGGGUUCGAGUCCCGUACGGAACG [C11U C34U G38A G44C], GUUCCGUUGGCGUAAUGGUAACGCGUCUCCGUCGUAAGGAGAUGACUGCGGGUUCGAGUCCCGUACGGAACG [C31G C34G A43U] is lower in yeast fitness: 0.541 for the first, no more than 0.5 for the second.

GUUCCGUUGGCGUGAUGGUAACGAGUCUCCCUCCUUAGGAGAAGACUGCGGGUUAGAGUCCCAUACGGAACG [A14G C24A A36U C55A G63A] and GUUCCGUUGGCAUAAUGGUAACGCGUAUCCGUCCUAAGGAGCAGACUGCGGGUUCGAGUCGCGUACGGAACG [G12A C27A C31G A42C C61G] cannot be ordered by yeast fitness: no more than 0.5 for the first, no more than 0.5 for the second.

Compared with GUUCCGUCGGCGUAAUGGUAAGGCGUCUCCCUCCUAAGGAGAAGACUGUGGGUUCGAGUCCCGCACGGAACG [U8C C22G C49U U64C], GUUCCAUUGGCGUAAUCGUAACGCGUCUCCCUCCUAAGGAGAAGACUGCGGGUUCGAGUCUUGUAAGGAACG [G6A G17C C61U C62U C66A] is lower in yeast fitness: 0.679 for the first, no more than 0.5 for the second.

GUUCCGUUGGCGUAAUGGUAACGCGUCUCCCUCCUAAGGAGAAGACUGCGGGUUGGAGUGCCGUACGGAACG [C55G C60G] and GUUUCGUUGGCGUAAUGGUAACGCGUAUCCCUCCUAAGGAGAAGCCUGCCGGUUCGAGUCCCGUACGGAACG [C4U C27A A45C G50C] cannot be ordered by yeast fitness: no more than 0.5 for the first, no more than 0.5 for the second.

GUUCCCUUGGCGUAAUAGUAACGCGUCUCCCUCCUUAGGAGAAGAAUGCGGGUUCGAGUCCCGUACGGAACG [G6C G17A A36U C46A] and GUUCCGUUGGCGUCACGGUAGCGCGUCUACCUCUUAAGGAGAAGACUGCGGGUUCGAGUCCCGUACGGUACG [A14C U16C A21G C29A C34U A69U] cannot be ordered by yeast fitness: no more than 0.5 for the first, no more than 0.5 for the second.

With GUUCCGUUGGCGUCAUGGUAACGCGUCUCCGUCCUAAGGAGAACACUGCGGGUUCGAGUCCCGUACGGAACG [A14C C31G G44C] the yeast fitness was no more than 0.5.
